Measurements published in publication PMC11946196.
These are yes or no findings as the source states them, for the method shown. Binding seen in cells or lysates may run through a third protein. Some entries that bind do so weakly or less than the wild type.

By UniProt entry, the sequences of proteins in these tests, tags left out.
UniProt P29590: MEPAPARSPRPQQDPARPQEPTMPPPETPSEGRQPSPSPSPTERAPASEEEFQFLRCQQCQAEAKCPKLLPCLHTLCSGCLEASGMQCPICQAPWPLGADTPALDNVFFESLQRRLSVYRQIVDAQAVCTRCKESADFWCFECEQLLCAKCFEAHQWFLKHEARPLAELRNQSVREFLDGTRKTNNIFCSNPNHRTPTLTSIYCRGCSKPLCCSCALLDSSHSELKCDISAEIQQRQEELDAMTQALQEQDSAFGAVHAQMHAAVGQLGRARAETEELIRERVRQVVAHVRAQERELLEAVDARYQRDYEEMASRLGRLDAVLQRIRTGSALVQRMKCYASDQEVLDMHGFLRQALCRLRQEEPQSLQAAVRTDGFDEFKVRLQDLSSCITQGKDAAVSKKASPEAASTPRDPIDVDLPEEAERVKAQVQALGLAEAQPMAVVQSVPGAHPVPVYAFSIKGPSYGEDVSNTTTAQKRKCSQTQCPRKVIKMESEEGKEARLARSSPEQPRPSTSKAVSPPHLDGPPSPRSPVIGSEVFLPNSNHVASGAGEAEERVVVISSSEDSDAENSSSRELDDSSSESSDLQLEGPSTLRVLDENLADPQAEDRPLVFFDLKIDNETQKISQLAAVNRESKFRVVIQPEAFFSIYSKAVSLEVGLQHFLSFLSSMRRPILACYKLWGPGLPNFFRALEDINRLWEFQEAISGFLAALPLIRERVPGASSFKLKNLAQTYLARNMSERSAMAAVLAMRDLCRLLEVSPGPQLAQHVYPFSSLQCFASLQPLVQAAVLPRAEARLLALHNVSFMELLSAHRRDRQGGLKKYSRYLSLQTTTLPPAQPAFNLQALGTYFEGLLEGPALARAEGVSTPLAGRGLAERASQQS

Experiments:
[1] = molecular target: α3 isoform of the Na+/K+-ATPase pump (human (endogenous in HFFs)) (UniProt P13637); experiment: co-IP
[2] = molecular target: promyelocytic leukemia protein (human (endogenous in HFFs)) (UniProt P29590); experiment: co-IP

## promyelocytic leukemia protein (from UniProt P29590 1-882)
[1]
  binding: binds

## α3 isoform of the Na+/K+-ATPase pump (from UniProt P13637 1-1013)
[2]
  binding: binds
